Results deposited as PubChem BioAssay AID1159584 (Peter MacCallum Cancer Centre, 2016).
Purpose: 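Genes whose loss is lethal only together with E-cadherin loss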 (primary screen). Cells: human MCF10A breast epithelial cells, parental and CDH1-null. Knock-down reagent: siRNA against human genes. Measurement: 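ATP luminescence (CellTiter-Glo) viability per line relative to mean mock wells over all plates, and the ratio of CDH1-null to parental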. Scale: CDH1-null / parental viability ratio: higher = CDH1-null cells survive relatively better than parental.
This is an unselected part of about 18,000 deposited reagents. Further read-outs or replicates are left out here. The record does not give: the amount of reagent, the time to read-out.

gene symbol,PubChem SID,CDH1-null / parental viability ratio
ZNF385C (GeneID 201181),SID152155595,1.32
KCNQ3 (GeneID 3786),SID134311691,1.26
AKNAD1 (GeneID 254268),SID152156008,1.03
PPP2R5C (GeneID 5527),SID152152158,1.17
CADM2 (GeneID 253559),SID152147147,0.76
LCA5 (GeneID 167691),SID135623552,1.28
HOXD12 (GeneID 3238),SID134317333,1.05
AQP8 (GeneID 343),SID152156667,1.18
AP3S2 (GeneID 10239),SID135623288,0.9
CPAMD8 (GeneID 27151),SID135622628,1.46
KRTAP22-1 (GeneID 337979),SID134322511,1.32
TAF1 (GeneID 6872),SID56478970,1.09
SERPINA10 (GeneID 51156),SID152155095,1.12
MCM3AP (GeneID 8888),SID134321316,0.84
ARL13B (GeneID 200894),SID134321304,0.87
TMEM81 (GeneID 388730),SID135625045,1.11
IL9 (GeneID 3578),SID134312931,0.85
MSL2 (GeneID 55167),SID152155922,0.83

4 neighbouring reagents already listed:
gene symbol,PubChem SID,CDH1-null / parental viability ratio
LCA5 (GeneID 167691),SID135623552,1.28
HOXD12 (GeneID 3238),SID134317333,1.05
AQP8 (GeneID 343),SID152156667,1.18
AP3S2 (GeneID 10239),SID135623288,0.9

The list goes on:
gene symbol,PubChem SID,CDH1-null / parental viability ratio
CRYBG3 (GeneID 131544),SID135624751,1.38
CDK17 (GeneID 5128),SID56478886,1.04
QRSL1 (GeneID 55278),SID152151740,1.03
ACSM2B (GeneID 348158),SID135623577,1.14
RAMAC (GeneID 83640),SID135624166,1
DDB1 (GeneID 1642),SID152149275,1.04
OR2A12 (GeneID 346525),SID152153327,0.71
FANCA (GeneID 2175),SID135623718,0.83
GABRG3 (GeneID 2567),SID152152605,1.09
LRRTM1 (GeneID 347730),SID135623507,1.2
